From the supplement of paper PMC12819154, “High-throughput peptide-centric local stability assay extends protein–ligand identification to membrane proteins, tissues and bacteria” (Nature Structural & Molecular Biology, 2025)
The list shows a part of the results. Small differences around the control level are noise.

Sequences of proteins named here, by UniProt entry; tags and fusion partners are left off. A change or cut given only in a name is not applied to a line headed by its entry.
UniProt A6NDY0: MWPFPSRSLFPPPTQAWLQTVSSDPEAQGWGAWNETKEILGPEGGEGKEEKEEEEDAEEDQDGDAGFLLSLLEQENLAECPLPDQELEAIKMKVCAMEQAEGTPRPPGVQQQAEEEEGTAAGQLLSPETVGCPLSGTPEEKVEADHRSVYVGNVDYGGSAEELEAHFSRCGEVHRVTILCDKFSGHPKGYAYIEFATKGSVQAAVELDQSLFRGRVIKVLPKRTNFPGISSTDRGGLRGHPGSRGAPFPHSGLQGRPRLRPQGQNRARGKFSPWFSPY
UniProt A2RTY3: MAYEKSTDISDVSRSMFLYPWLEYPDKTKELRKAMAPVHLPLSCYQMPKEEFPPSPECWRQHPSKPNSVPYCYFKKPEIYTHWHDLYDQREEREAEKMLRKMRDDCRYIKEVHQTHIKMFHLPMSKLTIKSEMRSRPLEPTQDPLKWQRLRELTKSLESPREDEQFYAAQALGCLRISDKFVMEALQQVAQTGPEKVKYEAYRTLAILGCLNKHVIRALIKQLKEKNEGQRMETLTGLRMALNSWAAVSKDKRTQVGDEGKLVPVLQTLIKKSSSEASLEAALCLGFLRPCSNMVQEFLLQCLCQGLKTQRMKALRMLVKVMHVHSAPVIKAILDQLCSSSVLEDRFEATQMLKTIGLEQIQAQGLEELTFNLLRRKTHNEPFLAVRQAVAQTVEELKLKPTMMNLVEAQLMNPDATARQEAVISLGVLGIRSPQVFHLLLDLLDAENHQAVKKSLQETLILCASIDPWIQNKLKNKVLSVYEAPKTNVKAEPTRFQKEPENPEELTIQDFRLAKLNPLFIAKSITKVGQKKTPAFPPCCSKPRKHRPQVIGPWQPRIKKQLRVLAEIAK
UniProt A2A3K4: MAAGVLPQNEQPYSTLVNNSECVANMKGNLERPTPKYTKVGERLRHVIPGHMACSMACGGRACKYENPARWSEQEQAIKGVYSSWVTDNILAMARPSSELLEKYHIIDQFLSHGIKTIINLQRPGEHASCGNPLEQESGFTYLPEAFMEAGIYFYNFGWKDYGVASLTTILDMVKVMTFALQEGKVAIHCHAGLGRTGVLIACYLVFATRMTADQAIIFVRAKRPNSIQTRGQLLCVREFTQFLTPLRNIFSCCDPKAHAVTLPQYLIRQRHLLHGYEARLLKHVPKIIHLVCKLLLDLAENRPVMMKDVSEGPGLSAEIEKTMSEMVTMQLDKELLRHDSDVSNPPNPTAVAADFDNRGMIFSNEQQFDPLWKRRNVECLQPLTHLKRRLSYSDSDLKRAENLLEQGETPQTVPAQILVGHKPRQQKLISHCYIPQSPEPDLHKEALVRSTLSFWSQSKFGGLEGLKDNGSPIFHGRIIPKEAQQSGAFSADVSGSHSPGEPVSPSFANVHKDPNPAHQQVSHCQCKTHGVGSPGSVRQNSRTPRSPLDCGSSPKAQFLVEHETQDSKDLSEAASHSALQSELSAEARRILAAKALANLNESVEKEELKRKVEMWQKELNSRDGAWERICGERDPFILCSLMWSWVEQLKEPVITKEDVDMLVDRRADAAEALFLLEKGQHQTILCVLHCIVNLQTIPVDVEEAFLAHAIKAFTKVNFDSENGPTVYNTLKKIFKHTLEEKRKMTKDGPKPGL
UniProt A2RUR9: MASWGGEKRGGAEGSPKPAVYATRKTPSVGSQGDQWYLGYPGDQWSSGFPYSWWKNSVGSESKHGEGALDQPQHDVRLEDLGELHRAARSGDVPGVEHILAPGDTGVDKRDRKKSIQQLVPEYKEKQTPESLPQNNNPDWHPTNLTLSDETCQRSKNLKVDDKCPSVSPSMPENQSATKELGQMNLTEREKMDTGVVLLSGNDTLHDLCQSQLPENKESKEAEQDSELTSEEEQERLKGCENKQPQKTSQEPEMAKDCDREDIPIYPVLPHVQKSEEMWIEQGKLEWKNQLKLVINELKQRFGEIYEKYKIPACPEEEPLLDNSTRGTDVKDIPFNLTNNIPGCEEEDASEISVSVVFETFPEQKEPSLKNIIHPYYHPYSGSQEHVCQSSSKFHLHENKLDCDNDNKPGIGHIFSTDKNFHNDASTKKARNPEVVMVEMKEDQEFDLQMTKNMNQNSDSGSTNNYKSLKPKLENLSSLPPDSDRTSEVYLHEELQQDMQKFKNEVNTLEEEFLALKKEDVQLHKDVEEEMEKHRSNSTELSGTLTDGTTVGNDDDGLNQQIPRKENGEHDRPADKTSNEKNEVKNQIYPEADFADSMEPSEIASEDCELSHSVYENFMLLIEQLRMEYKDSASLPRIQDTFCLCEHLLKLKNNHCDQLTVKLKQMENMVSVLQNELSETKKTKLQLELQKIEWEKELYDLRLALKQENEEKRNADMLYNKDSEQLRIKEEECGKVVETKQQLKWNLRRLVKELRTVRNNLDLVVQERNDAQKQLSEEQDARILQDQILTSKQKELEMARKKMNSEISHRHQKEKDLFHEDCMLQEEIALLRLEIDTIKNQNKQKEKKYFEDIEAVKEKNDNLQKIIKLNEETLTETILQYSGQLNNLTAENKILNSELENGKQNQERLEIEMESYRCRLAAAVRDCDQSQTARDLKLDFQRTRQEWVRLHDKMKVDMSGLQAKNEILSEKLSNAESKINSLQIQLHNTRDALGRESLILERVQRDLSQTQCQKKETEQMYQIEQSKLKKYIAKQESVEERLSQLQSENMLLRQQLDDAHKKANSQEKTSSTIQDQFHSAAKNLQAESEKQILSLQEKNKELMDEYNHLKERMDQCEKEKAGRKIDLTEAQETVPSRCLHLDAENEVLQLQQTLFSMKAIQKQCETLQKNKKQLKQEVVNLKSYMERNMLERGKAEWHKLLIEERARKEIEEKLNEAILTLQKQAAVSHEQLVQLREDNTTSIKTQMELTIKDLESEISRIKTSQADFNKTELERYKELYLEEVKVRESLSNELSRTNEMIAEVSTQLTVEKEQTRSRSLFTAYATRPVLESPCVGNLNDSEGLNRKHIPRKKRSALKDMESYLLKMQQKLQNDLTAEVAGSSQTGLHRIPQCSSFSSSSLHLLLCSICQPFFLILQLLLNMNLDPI
UniProt A4D1E1: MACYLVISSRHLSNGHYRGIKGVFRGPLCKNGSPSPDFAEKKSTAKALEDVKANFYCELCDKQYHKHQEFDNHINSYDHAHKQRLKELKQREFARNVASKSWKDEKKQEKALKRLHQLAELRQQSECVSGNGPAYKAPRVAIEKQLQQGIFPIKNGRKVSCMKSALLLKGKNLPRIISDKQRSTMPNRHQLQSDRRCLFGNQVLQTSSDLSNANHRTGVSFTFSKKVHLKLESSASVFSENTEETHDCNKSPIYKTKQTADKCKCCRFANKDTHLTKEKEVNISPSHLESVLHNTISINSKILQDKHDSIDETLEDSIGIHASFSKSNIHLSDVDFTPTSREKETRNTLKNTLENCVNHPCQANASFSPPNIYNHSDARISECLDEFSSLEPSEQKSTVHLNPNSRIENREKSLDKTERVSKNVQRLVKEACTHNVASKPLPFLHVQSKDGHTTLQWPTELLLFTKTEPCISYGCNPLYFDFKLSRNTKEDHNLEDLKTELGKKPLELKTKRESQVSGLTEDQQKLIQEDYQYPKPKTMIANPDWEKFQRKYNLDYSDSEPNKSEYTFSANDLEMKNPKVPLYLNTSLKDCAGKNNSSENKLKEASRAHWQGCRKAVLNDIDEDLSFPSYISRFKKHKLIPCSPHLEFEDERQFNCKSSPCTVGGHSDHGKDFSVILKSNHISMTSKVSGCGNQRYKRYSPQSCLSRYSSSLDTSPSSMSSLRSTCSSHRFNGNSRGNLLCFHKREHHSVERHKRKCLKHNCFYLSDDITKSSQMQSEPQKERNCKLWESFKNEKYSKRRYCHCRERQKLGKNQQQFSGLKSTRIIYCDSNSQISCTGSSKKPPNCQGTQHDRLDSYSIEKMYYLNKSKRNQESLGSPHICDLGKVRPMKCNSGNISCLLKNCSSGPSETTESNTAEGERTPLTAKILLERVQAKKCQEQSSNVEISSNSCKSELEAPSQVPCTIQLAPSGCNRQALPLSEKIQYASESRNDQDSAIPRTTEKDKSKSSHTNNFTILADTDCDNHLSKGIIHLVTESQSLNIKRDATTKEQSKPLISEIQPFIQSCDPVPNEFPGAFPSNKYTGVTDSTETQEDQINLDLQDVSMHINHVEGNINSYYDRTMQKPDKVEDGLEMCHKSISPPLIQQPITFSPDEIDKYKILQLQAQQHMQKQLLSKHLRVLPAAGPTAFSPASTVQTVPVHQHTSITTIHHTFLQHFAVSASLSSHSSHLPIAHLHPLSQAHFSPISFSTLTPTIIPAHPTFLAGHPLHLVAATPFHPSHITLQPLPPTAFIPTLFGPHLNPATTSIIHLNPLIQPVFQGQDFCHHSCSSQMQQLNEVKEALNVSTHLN
UniProt A5PLN9: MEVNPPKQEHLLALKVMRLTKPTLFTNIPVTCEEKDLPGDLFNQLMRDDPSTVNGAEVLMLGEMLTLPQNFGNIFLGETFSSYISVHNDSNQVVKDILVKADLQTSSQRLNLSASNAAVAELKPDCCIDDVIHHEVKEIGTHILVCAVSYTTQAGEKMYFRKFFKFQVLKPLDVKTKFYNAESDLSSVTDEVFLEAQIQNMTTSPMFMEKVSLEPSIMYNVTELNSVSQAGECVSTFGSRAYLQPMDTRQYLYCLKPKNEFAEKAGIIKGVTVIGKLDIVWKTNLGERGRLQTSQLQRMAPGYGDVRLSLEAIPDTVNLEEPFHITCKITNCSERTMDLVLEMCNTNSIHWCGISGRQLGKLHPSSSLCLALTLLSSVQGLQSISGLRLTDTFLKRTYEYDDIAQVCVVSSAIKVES
UniProt A6NKT7, whole entry: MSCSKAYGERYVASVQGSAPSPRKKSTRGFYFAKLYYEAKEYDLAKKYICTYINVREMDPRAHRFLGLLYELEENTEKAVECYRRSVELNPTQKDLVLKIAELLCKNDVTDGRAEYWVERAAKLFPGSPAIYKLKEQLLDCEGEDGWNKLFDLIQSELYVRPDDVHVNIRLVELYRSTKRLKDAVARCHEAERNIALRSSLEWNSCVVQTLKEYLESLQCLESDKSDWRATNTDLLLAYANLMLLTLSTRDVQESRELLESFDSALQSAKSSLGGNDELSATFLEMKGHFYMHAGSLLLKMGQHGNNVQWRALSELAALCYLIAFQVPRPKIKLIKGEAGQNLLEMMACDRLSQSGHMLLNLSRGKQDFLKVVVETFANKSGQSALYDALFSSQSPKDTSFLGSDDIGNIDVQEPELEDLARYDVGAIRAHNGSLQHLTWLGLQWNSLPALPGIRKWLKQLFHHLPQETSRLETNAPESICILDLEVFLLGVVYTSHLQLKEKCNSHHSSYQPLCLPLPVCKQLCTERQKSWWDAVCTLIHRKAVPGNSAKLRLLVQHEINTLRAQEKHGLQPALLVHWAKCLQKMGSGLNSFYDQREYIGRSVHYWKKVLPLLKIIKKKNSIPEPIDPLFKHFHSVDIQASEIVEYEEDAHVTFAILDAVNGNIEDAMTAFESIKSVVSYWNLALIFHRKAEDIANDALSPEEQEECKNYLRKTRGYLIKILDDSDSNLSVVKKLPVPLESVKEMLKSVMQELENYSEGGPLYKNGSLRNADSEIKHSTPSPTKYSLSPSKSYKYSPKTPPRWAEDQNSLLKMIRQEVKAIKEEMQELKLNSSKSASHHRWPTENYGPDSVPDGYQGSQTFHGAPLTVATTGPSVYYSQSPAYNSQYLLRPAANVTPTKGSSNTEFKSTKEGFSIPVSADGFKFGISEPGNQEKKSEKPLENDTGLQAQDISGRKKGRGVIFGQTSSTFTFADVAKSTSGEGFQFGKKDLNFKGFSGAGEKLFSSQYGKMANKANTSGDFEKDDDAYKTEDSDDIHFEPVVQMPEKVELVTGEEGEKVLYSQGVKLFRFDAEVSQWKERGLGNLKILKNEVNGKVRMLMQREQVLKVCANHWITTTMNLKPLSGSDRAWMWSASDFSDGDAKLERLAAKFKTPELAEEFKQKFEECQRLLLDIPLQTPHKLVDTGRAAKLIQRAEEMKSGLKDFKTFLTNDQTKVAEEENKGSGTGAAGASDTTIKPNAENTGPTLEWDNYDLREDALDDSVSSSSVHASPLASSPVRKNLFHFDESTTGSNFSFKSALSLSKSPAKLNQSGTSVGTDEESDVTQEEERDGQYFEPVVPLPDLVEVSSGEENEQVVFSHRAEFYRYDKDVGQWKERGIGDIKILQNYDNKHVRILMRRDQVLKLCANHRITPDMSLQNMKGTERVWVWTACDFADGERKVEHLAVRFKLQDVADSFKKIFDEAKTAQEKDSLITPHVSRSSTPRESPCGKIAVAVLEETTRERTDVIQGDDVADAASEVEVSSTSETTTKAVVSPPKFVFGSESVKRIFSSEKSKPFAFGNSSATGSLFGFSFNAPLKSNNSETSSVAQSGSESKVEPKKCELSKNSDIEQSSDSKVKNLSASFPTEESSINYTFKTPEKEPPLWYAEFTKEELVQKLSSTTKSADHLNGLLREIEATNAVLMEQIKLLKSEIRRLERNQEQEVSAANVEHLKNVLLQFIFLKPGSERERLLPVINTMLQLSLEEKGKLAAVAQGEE

What follows are targets tested with Cc1nc(Nc2ncc(C(=O)Nc3c(C)cccc3Cl)s2)cc(N2CCN(CCO)CC2)n1 [dasatinib] (assay: log2 fold change of tryptic peptide abundance, ligand vs vehicle (limited proteolysis) (log2 ratio); higher = more trypsin-susceptible (destabilized)). Conditions: ligand concentration: 5 uM; sample: K562 cleared lysate.
“UHRF1BP1L (peptide sequence: SVTVNHMSDNR, peptide start residue: 922) (UniProt A0JNW5)” gave a log2 fold change of 0.44. “HMX3 (peptide sequence: QLAAELEAANLSHAAAQR, peptide start residue: 285) (UniProt A6NHT5)” was tested, and the log2 fold change was -0.206. “UniProt A2RRP1 (peptide sequence: QVDCALSLIR, peptide start residue: 859)” showed a log2 fold change of 0.539. Work on “A0A590UK10 (peptide sequence: LFPCADDLLETHSHFLAR, peptide start residue: 491)” yielded a log2 fold change of -0.665. Work on “UniProt A6NDY0 (peptide sequence: VTILCDKFSGHPK, peptide start residue: 201)” yielded a log2 fold change of 0.0406. “UniProt A6NGE4 (peptide sequence: FVYEACGAR, peptide start residue: 169)” gave a log2 fold change of 0.0338. Target “UniProt A1L429 (peptide sequence: STYYWPR, peptide start residue: 7)” has a log2 fold change of -0.0322. For “CPED1 (peptide sequence: SDVFKGENYQK, peptide start residue: 430) (UniProt A4D0V7)”, the log2 fold change was 0.327. “A0A024RBG1 (peptide sequence: TYDREGFK, peptide start residue: 11), A0A024RBG1” gave a log2 fold change of -0.18. With “UniProt A2RTY3 (peptide sequence: WQRLRELTK, peptide start residue: 147)” the log2 fold change was -0.0171. “UniProt A6NFY7 (peptide sequence: QVLSLYR, peptide start residue: 10)” gave a log2 fold change of -0.187. With “USP27X (peptide sequence: FTRPEHLGSSAK, peptide start residue: 369) (UniProt A6NNY8)” the log2 fold change was -0.112. For “PTPDC1 (peptide sequence: NIFSCCDPK, peptide start residue: 249) (UniProt A2A3K4)”, the log2 fold change was 0.559. Target “A0A2R8Y4L2 (peptide sequence: IVIQKYHTVNGHNCEVR, peptide start residue: 162), A0A2R8Y4L2” has a log2 fold change of 0.397. “A0AVF1 (peptide sequence: SHYQEAIDIYKR, peptide start residue: 165)” was tested, and the log2 fold change was -0.0396. “TCAF2 (peptide sequence: VVLAAHECLLCAPK, peptide start residue: 268) (UniProt A6NFQ2)” showed a log2 fold change of -0.752. For “A0A1W2PQ72 (peptide sequence: ASDEDCQLR, peptide start residue: 158), A0A1W2PQ72”, the log2 fold change was -0.37. For “CCDC144A (peptide sequence: FKNEVNTLEEEFLALKK, peptide start residue: 452) (UniProt A2RUR9)”, the log2 fold change was 0.132. With “UniProt A6NEH6 (peptide sequence: MEFELTR, peptide start residue: 111)” the log2 fold change was 0.206. For “FBLL1 (peptide sequence: IVALNAHTFLR, peptide start residue: 245) (UniProt A6NHQ2)”, the log2 fold change was 0.0433. Target “UniProt A8K0S8 (peptide sequence: MPIDLVIEDR, peptide start residue: 68)” has a log2 fold change of -0.154. “UniProt A4D1E1 (peptide sequence: ANFYCELCDK, peptide start residue: 134)” gave a log2 fold change of -0.0986. “A0A8I5KQE6 (peptide sequence: LLVVTDPR, peptide start residue: 121), A0A8I5KQE6” gave a log2 fold change of -0.157. For “UniProt A5PLN9 (peptide sequence: AYLQPMDTR, peptide start residue: 241)”, the log2 fold change was 0.253. With “PALM3 (peptide sequence: TGGGEETWEAEKR, peptide start residue: 384) (UniProt A6NDB9)” the log2 fold change was -0.695. In the case of “UniProt A6NKT7 (peptide sequence: AVECYRR, peptide start residue: 79)”, the log2 fold change is reported as 0.573. “A0A087WWU0 (peptide sequence: WDEEAQDAAGEEEKEQEKEK, peptide start residue: 257)” showed a log2 fold change of 0.434. Work on “UniProt A6NC57 (peptide sequence: TITRYSK, peptide start residue: 617)” yielded a log2 fold change of -0.0224. In the case of “A0A3B3IU46 (peptide sequence: SWGNNYPQHR, peptide start residue: 86), A0A3B3IU46”, the log2 fold change is reported as -0.0542. “UniProt A8K8P3 (peptide sequence: AVQHHHR, peptide start residue: 778)” was tested, and the log2 fold change was 0.254.
